Data as given in PubChem BioAssay AID504786 (Drosophila RNAi Screening Center, 2011)

Assay: 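Knock-downs reducing HIF reporter induction by the iron chelator DFO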 (primary screen)
Cell system: Drosophila S2 cells with a stable HIF luciferase reporter
Reagents: long dsRNA against Drosophila genes, about 0.2 µg dsRNA per well of a 384-well plate
Timing: three days of knock-down, then 20 h of DFO before reading
Conditions: desferrioxamine (DFO) at 100 µM, an iron chelator that mimics hypoxia, for 20 h
Read-out: 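Firefly luciferase driven by the mouse ldh-a hypoxia-response element, measured after 20 h of 100 µM DFO; z-scores per plate, higher means more signal lost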
Direction: z-score: higher = stronger loss of HIF reporter signal
In all, the deposit lists about 21,000 reagents; shown is an unselected part of those that have a named target and a result. 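Primary screen; positive scores mean lost reporter signal, so the sign may be inverted from the usual convention.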 The numbers tell different reagents against one gene apart. No sequences are given here.

gene | reagent no. | z-score, replicate 1 | z-score, replicate 2 | z-score, replicate 3 | z-score, replicate 4
CG42749 | 1 | -0.3 | -0.3 | – | –
CG42749 | 2 | -0.3 | -0.5 | – | –
l(2)27Cb (retired record) | 1 | -0.3 | -0.3 | – | –
RpL17 | 1 | 7 | 4.6 | – | –
RpL35 | 1 | 6.4 | 3.9 | – | –
Ack-like | 1 | -0.2 | -0.2 | – | –
CG14346 | 1 | -0.2 | 0 | – | –
fusl | 1 | -0.3 | -0.3 | – | –
CG6481 | 1 | 0 | 0.7 | – | –
Lkr | 1 | 0.1 | -0.5 | – | –
link | 1 | 0.5 | 1 | – | –
tweek | 1 | -0.2 | 0.3 | – | –
tweek | 2 | -0.2 | 0.5 | – | –
tweek | 3 | 0.8 | 2.2 | – | –
CG31523 | 1 | -0.6 | -0.2 | – | –
CG31523 | 2 | 0 | 0 | – | –
Adgf-D | 1 | -0.4 | 0 | – | –
RhoGAP92B | 1 | -1.1 | -0.9 | – | –
RhoGAP92B | 2 | -0.7 | -1.2 | – | –
CG17097 | 1 | 0 | -0.2 | – | –
CG10445 | 1 | -0.2 | -0.8 | – | –
CG14341 | 1 | -0.1 | -0.3 | – | –
Nup133 | 1 | 0 | 0.7 | – | –
CG31174 | 1 | -0.1 | -0.1 | – | –
Pp2A-29B | 1 | -0.4 | -0.8 | – | –
CG14968 | 1 | 0 | 0.8 | – | –
MED6 | 1 | -0.1 | 0.2 | – | –
CG18095 | 1 | -0.2 | -0.1 | – | –
Nepl7 | 1 | 0.7 | 0 | – | –
cato | 1 | -0.3 | -0.4 | – | –
CG15226 (retired record) | 1 | -0.1 | -0.2 | – | –
CG15226 (retired record) | 2 | -0.1 | 0.1 | – | –
Fancd2 | 1 | 0 | -0.4 | – | –
Grp170 | 1 | -0.4 | -0.6 | – | –
CG14300 | 1 | -1.2 | -0.2 | – | –
Ran | 1 | 5.8 | 4.2 | – | –
Or33c | 1 | -0.1 | -0.1 | – | –
CG42525 | 1 | -0.1 | -0.7 | -0.6 | -0.4
Cyp4ae1 | 1 | -0.2 | -0.8 | – | –
TM9SF4 | 1 | -0.5 | -0.8 | – | –
TM9SF4 | 2 | -0.3 | -0.3 | – | –
CG11334 | 1 | 0 | -0.3 | – | –
CG11334 | 2 | -0.3 | 0.1 | – | –
Ccm3 | 1 | 0.4 | 0.1 | – | –
CG14989 | 1 | 0 | -0.3 | – | –
CG34459 | 1 | -0.1 | -0.4 | – | –
CG15365 | 1 | 1.4 | 4 | – | –
Gle1 | 1 | -0.3 | -0.4 | – | –
CG7006 | 1 | -0.1 | 1.7 | – | –
CG30378 | 1 | -0.2 | -0.1 | – | –
Ugt35B1 | 1 | -0.4 | -0.5 | – | –
Fcp1 | 1 | -0.3 | -0.6 | – | –
GstD1 | 1 | -0.3 | -0.4 | – | –
Cyp6a16Psi (retired record) | 1 | -0.1 | 0 | – | –
CG1409 | 1 | -0.1 | -0.3 | – | –
CG15753 (retired record) | 1 | -0.1 | 4.6 | – | –

Part of the list above, set out differently:
CG34459 — z-score, replicate 1: -0.1; z-score, replicate 2: -0.4
CG15365 — z-score, replicate 1: 1.4; z-score, replicate 2: 4
Gle1 — z-score, replicate 1: -0.3; z-score, replicate 2: -0.4
CG7006 — z-score, replicate 1: -0.1; z-score, replicate 2: 1.7
CG30378 — z-score, replicate 1: -0.2; z-score, replicate 2: -0.1
Ugt35B1 — z-score, replicate 1: -0.4; z-score, replicate 2: -0.5
